Source: publication PMC3787022, “Small Angle X-Ray Scattering Studies of Mitochondrial Glutaminase C Reveal Extended Flexible Regions, and Link Oligomeric State with Enzyme Activity” (PLoS ONE, 2013)
These are yes or no findings as the source states them, for the method shown. Some entries that bind do so weakly or less than the wild type.

Target: Glutaminase C wildtype construct (mouse GAC, residues 73-603) (mouse) (UniProt D3Z7P3)
Test: TEM; TEM images of higher order oligomers (Figure S10 in File S1); conditions not shown; both purified

binding: binds
B1: Glutaminase C wildtype construct (mouse GAC, residues 73-603) (enzyme, UniProt D3Z7P3-2 73-603, looked up)
chain: SSSPSEILQELGKGGTPPQQQQQQQQQPGASPPAAPGPKDSPGETDAFGNSEGKEMVAAGDNKIKQGLLPSLEDLLFYTIAEGQEKIPVHKFITALKSTGLRTSDPRLKECMDMLRLTLQTTSDGVMLDKDLFKKCVQSNIVLLTQAFRRKFVIPDFMSFTSHIDELYESAKKQSGGKVADYIPQLAKFSPDLWGVSVCTVDGQRHSIGDTKVPFCLQSCVKPLKYAIAVNDLGTEYVHRYVGKEPSGLRFNKLFLNEDDKPHNPMVNAGAIVVTSLIKQGVNNAEKFDYVMQFLNKMAGNEYVGFSNATFQSERESGDRNFAIGYYLKEKKCFPEGTDMVGILDFYFQLCSIEVTCESASVMAATLANGGFCPITGERVLSPEAVRNTLSLMHSCGMYDFSGQFAFHVGLPAKSGVAGGILLVVPNVMGMMCWSPPLDKMGNSVKGIHFCHDLVSLCNFHNYDNLRHFAKKLDPRREGGDQRHSFGPLDYESLQQELALKDTVWKKVSPESSDDTSTTVVYRMESLGERS
notes: GAC isoform of 603 residues; also called GACwt; GAC wildtype; source: expressed from a pET28a vector, purified (Ni-column, anion-exchange, gel filtration); not shown: histidine tag, N-terminal, cleaved
